The other results are listed elsewhere or left out.
compound: C1=CC=C(C=C1)[C@H](COC2=CC3=C(C=C2)NC(=O)N3)NC(=O)C4=CC=CN(C4=O)CC5=CC(=C(C=C5)F)F; experiment: log2 fold change, soluble protein after heating vs DMSO (PISA); higher = thermal stabilisation; K562 cells, 10 uM, 30 min; active = over 0.2 and 3.5 SD of the protein, either way, in both replicates (recomputed)
Outline: (§1)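 For each measurement, 10 μM compound was applied for 30 min to K562 cells at 2×10^6 cells/mL. Aliquots were heated for 3 min across 48°C-58°C, pooled, and extracted in PBS with 0.5% NP-40 at 4°C; the supernatant after 21,000xg for 90 min was soluble protein. This was quantified by TMTpro 16plex LC-MS/MS with channel sums equalised, and thermal stability was reported relative to control samples from duplicates, on a log2 fold-change scale.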

Chains of the proteins cited; added tags and fusions are not shown. Lines headed by an entry give the natural chain unless they say otherwise; changes in a name come on top.
UniProt P08922: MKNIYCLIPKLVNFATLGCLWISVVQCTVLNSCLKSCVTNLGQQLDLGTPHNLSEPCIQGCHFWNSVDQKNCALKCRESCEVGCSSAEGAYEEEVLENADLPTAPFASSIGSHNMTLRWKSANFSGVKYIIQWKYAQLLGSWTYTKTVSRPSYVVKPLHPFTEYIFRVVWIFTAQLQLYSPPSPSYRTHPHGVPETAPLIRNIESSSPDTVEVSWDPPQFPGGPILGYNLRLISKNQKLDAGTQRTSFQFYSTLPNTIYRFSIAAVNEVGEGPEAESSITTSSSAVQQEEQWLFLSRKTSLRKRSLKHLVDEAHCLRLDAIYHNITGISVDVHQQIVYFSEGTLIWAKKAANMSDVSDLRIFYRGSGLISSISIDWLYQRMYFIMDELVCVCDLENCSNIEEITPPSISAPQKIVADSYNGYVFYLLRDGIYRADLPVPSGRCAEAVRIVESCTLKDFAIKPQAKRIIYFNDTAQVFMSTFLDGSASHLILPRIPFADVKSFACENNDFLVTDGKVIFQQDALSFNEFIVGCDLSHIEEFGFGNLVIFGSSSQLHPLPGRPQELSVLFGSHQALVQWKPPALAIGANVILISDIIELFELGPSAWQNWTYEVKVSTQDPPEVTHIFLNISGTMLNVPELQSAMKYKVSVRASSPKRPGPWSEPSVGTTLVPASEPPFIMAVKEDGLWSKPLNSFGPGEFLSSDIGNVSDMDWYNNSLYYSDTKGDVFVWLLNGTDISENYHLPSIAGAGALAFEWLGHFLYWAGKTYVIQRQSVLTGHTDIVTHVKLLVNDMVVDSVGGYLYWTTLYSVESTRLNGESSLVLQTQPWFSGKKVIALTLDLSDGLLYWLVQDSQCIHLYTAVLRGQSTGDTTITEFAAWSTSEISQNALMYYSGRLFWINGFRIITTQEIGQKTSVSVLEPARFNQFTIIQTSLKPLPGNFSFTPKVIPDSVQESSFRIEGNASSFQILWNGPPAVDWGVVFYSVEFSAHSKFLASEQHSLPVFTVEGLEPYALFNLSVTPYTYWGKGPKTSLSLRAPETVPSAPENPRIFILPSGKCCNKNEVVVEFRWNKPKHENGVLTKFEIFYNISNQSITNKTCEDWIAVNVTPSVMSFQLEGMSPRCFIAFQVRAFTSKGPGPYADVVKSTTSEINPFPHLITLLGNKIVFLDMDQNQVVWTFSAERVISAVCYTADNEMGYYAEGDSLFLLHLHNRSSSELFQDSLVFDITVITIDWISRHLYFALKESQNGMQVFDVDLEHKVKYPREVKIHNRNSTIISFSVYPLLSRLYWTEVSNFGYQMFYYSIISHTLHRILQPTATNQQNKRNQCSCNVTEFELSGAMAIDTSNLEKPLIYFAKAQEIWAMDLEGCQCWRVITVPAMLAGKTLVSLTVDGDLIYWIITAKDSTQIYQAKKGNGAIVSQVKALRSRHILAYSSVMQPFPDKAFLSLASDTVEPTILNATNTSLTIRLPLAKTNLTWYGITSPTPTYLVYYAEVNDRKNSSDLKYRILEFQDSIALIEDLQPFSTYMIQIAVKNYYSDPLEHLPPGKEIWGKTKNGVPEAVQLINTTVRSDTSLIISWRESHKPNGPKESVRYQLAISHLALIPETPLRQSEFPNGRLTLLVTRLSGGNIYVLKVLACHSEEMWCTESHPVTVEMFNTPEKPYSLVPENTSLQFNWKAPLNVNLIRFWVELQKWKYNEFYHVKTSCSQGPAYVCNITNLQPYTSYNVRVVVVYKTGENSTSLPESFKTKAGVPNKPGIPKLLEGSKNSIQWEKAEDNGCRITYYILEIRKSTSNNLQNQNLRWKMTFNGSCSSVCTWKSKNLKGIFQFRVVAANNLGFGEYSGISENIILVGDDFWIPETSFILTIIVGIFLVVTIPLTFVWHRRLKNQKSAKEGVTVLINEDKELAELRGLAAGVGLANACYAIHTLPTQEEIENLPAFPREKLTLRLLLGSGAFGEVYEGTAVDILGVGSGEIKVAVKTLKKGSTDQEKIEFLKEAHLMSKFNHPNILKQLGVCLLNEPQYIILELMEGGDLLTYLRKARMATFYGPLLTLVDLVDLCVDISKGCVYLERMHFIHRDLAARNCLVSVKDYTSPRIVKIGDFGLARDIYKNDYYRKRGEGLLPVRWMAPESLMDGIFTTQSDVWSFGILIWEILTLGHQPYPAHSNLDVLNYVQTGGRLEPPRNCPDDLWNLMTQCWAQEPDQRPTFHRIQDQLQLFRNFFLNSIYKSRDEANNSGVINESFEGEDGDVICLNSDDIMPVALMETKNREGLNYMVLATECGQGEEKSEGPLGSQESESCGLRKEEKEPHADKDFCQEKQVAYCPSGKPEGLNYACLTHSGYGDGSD
UniProt P78317: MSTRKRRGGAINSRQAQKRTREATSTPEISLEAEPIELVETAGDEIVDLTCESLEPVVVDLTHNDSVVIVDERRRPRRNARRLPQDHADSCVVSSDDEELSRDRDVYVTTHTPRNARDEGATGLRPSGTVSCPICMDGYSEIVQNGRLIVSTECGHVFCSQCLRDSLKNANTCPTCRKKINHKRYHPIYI
UniProt Q5VT52: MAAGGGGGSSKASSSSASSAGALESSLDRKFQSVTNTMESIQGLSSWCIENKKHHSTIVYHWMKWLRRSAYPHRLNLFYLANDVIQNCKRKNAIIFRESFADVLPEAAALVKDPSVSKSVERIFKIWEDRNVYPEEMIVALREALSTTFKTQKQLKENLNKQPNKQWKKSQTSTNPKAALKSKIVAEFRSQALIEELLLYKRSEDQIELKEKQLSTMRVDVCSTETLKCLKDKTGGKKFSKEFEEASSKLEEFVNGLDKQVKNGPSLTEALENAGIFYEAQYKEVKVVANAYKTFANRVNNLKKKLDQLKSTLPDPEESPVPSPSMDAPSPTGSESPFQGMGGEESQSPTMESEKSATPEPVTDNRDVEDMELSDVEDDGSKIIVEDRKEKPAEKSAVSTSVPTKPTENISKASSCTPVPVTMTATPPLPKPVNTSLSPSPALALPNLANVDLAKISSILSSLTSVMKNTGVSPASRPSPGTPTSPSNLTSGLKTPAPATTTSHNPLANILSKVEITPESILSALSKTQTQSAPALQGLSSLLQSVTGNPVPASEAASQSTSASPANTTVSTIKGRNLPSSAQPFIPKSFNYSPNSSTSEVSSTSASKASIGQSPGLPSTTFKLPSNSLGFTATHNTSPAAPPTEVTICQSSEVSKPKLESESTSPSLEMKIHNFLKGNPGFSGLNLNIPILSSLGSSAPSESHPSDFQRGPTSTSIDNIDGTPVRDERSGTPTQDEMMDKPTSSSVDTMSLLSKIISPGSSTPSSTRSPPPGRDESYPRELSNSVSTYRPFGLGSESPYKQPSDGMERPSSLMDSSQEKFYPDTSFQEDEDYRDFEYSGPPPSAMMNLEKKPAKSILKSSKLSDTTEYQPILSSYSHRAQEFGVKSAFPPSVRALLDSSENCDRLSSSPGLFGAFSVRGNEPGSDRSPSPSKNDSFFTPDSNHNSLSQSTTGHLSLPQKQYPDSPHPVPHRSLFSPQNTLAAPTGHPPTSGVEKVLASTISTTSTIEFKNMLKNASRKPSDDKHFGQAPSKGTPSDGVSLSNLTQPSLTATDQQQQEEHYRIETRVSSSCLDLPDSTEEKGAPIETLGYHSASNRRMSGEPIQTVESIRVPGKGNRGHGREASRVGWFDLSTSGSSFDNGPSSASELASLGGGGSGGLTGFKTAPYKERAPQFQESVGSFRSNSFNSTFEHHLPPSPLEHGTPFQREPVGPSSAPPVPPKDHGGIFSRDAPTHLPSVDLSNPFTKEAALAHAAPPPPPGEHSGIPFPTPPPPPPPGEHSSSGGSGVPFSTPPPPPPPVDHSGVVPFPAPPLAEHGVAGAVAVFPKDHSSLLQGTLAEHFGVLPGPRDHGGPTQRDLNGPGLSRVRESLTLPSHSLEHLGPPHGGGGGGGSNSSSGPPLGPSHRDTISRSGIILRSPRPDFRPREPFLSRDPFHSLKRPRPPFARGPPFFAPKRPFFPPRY
UniProt P78346: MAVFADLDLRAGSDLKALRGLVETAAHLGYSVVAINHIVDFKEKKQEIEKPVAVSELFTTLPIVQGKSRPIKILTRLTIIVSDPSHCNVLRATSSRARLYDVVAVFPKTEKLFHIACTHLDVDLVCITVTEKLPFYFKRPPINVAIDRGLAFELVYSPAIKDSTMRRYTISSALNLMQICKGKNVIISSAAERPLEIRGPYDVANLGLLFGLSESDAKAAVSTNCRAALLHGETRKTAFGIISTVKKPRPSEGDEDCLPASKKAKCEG
UniProt Q9Y225: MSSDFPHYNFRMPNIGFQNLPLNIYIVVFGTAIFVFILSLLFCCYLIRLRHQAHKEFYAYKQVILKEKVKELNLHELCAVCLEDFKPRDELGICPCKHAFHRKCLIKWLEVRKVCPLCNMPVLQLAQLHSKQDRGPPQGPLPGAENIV
UniProt P49247: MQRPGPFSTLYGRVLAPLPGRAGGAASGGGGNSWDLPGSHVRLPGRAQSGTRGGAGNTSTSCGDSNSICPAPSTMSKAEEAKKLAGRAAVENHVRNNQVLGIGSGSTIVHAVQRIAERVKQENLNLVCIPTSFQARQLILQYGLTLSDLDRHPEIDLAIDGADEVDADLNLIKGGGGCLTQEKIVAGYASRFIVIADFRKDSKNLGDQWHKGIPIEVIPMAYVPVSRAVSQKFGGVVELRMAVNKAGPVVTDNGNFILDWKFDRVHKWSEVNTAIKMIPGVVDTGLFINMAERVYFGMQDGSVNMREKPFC
UniProt O75695: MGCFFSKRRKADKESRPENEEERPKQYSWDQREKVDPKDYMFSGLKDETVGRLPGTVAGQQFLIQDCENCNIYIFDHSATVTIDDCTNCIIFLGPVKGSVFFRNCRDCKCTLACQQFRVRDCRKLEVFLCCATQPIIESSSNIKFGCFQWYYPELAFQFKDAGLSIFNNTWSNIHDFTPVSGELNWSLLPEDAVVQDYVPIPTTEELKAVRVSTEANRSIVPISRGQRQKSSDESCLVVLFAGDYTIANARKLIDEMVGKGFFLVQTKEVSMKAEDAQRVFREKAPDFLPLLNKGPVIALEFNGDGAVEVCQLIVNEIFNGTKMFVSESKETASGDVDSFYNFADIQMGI
UniProt Q8TA86: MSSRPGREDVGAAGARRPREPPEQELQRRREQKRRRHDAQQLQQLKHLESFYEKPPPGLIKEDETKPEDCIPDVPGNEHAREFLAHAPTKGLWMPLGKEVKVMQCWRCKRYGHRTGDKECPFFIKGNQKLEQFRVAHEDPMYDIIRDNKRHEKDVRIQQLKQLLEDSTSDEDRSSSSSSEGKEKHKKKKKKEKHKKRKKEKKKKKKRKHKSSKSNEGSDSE
UniProt P10301: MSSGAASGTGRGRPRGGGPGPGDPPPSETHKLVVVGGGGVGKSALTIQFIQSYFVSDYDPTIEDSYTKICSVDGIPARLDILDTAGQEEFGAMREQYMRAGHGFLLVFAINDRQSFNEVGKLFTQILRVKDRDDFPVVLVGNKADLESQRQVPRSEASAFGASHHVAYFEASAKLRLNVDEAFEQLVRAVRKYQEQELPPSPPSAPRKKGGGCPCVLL
UniProt P60602: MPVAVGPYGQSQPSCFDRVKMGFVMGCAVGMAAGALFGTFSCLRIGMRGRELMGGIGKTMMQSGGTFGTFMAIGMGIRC
UniProt Q8IXW5, whole entry, looked up: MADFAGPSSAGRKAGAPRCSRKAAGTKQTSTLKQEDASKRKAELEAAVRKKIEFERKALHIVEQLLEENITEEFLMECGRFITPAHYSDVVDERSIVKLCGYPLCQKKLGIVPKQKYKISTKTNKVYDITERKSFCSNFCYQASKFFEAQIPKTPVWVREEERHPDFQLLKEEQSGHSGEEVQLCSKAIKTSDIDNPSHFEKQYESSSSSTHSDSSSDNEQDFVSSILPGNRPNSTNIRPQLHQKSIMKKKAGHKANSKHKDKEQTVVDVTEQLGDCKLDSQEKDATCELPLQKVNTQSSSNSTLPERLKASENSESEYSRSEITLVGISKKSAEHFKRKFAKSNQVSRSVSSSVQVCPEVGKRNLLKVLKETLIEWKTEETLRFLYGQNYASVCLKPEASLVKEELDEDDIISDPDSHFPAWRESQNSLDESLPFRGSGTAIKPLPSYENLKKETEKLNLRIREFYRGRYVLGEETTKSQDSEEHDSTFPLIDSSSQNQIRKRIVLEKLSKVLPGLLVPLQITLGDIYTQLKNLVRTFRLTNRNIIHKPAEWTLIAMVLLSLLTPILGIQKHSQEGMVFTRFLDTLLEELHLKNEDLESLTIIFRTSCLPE
UniProt Q96CM3: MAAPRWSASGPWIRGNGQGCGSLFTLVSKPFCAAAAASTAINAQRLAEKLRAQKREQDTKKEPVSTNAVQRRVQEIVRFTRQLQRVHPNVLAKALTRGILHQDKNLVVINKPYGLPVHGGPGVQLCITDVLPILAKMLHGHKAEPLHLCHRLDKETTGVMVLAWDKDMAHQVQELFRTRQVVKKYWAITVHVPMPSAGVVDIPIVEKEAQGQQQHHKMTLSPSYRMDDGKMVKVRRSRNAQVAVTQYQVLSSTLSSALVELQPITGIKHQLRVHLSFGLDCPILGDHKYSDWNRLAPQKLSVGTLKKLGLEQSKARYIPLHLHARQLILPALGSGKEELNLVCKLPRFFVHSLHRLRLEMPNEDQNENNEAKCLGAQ

Target | log2 fold change
RPS24 isoform 4 (UniProt P62847) | inactive: 0.116
RPL37A (UniProt P61513) | inactive: 0.261
RPL10 (UniProt P27635) | inactive: 0.14
RPL7L1 (UniProt Q6DKI1) | inactive: 0.088
ROS1 (UniProt P08922) | inactive: -0.137
RPN2 (UniProt P04844) | inactive: 0.006
RNF4 (UniProt P78317) | inactive: 0.056
RPS28 (UniProt P62857) | inactive: -0.022
RPL8 (UniProt P62917) | inactive: 0.236
RPS26 (UniProt P62854) | inactive: 0.177
RNF26 (UniProt Q9BY78) | inactive: 0.005
RPS3 (UniProt P23396) | inactive: 0.055
RPRD2 (UniProt Q5VT52) | inactive: -0.364
RPL35A (UniProt P18077) | inactive: 0.272
RPS10 (UniProt P46783) | inactive: 0.049
RPP30 isoform 2 (UniProt P78346) | inactive: 0.046
RNF24 isoform 2 (UniProt Q9Y225) | inactive: -0.118
RPIA (UniProt P49247) | inactive: -0.006
RPS7 (UniProt P62081) | inactive: 0.077
RPS7, A0A2R8Y623 | inactive: -0.009
RPL26L1 (UniProt Q9UNX3) | inactive: 0.094
RPS4X (UniProt P62701) | inactive: 0.105
RP2 (UniProt O75695) | inactive: 0.022
RPL24 (UniProt P83731) | inactive: 0.098
RP9 (UniProt Q8TA86) | inactive: 0.117
RRAS (UniProt P10301) | inactive: 0.039
ROMO1 (UniProt P60602) | inactive: 0.045
RREB1 isoform 2 (UniProt Q92766) | inactive: 0.042

compound: CC1=C(SC2=C1C(=N[C@H](C3=NN=C(N32)C)CC(=O)N)C4=CC=C(C=C4)Cl)C; experiment: as above
Outline: as §1

Target | log2 fold change
RPS24 isoform 4 (UniProt P62847) | inactive: -0.215
RPL37A (UniProt P61513) | inactive: -0.52
RPL10 (UniProt P27635) | inactive: -0.401
RPLP0 (UniProt F8VWV4) | inactive: -0.134
ROGDI (UniProt Q9GZN7) | inactive: 0.033
ROS1 (UniProt P08922) | inactive: 0.107
RPN2 (UniProt P04844) | inactive: 0.004
RPS28 (UniProt P62857) | inactive: -0.184
RPL8 (UniProt P62917) | inactive: -0.601
RPS26 (UniProt P62854) | inactive: -0.413
RPAP2 (UniProt Q8IXW5) | inactive: 0.052
RPS3 (UniProt P23396) | inactive: -0.118
RPL35A (UniProt P18077) | inactive: -0.548
RPS10 (UniProt P46783) | inactive: -0.106
RPP30 isoform 2 (UniProt P78346) | inactive: -0.03
RPS6KB2 (UniProt Q9UBS0) | inactive: -0.017
RPIA (UniProt P49247) | inactive: 0.003
RPS7 (UniProt P62081) | inactive: -0.181
RPL26L1 (UniProt Q9UNX3) | inactive: -0.24
RPS4X (UniProt P62701) | inactive: -0.255
RP2 (UniProt O75695) | inactive: 0.043
RPUSD4 (UniProt Q96CM3) | inactive: -0.094
RPL24 (UniProt P83731) | inactive: -0.37
RP9 (UniProt Q8TA86) | inactive: -0.102
RRAS (UniProt P10301) | inactive: 0.004
ROMO1 (UniProt P60602) | inactive: -0.061
RREB1 isoform 2 (UniProt Q92766) | inactive: -0.065

Reference: the supplement of paper PMC10849652
